For 58 compounds, cell number change and AC50 results are on record in PubChem BioAssay AID2685 (National Center for Advancing Translational Sciences (NCATS), 2010).

The assay in a line: qHTS Assay for Lipid Storage Modulators in Drosophila S3 Cells.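 On cell number change: cells counted by Cell Tracker Red CMTPX staining in the red channel.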 The settings on record: BODIPY lipid droplet fluorescence, 18-24 h; for cell number change: measured here: cell count max response, cells fed with added oleic acid. A digest of the protocol:
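Drosophila S3 cells loaded with oleic acid (400 uM, as added) and compounds at several concentrations; lipid droplets imaged by 488-nm laser-scanning cytometry, 500–530 nm intensity and object ratio to cell channel. Percent activity normalized to 20 uM Triacsin C.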

The mark [1] stands for this setting: measured here: lipid fluorescence (Fed channel) AC50, cells fed with added oleic acid.
The mark [2] stands for this setting: measured here: cell number channel AC50, cells fed with added oleic acid.

The AC50 is the midpoint of the concentration-response curve, whichever way the signal moves.

Molecules are shown by their SMILES. The list shows a part of the results. The main result of the screen is listed elsewhere. These columns were measured beside it and carry no call. Most of these compounds were active or inconclusive in the main read-out, so they are no random draw. Words in brackets tell the shape of the fitted curve; partial curves, single points and poor fits give uncertain potencies.

`O=C(c1cccc(C(F)(F)F)c1)C1CCCN(C(=O)/C=C/c2cnc[nH]2)C1` (stereo not given): the cell number change worked out at 0.85%. In addition, the half-maximal activity concentration (AC50) under setting [1] was 3.66 µM [rising, partial curve].

Regarding `Cc1nc(/C(N)=N/OC(=O)c2ccc(Cl)cc2)c(C(F)(F)F)o1`, the cell number change was -40.9%. Moreover, the AC50 under setting [2] is 18.4 µM [falling, single point]. Further, under setting [1], the half-maximal activity concentration (AC50) was 29.1 µM [falling, single point].

Turning to `O=C(CSc1nc(=O)n2ccccc2n1)Nc1cccc2ccccc12`, under setting [1], the concentration at half-maximal activity (AC50) is 2.31 µM [rising, partial curve].

With `Cn1c(CSc2nc3ccccc3s2)nnc1SCC(=O)NCCN1CCOCC1`, the cell number change was 9.21%. Also, the AC50 under setting [1] was 0.411 µM [rising, single point].

Regarding `CCCn1c(=S)[nH]c2cc(C(=O)N(CCO)Cc3ccccc3)ccc2c1=O`, the cell number change is -25.5%. In addition, the half-maximal activity concentration (AC50) under setting [1] was 5.8 µM [falling, full curve].

`COc1ccc(CNC(=O)N2CCN(c3cccc(C)c3C)CC2)cc1OC`: the cell number change came to 28.8%. In addition, the AC50 under setting [2] was 0.00461 µM [rising, full curve, poor fit].

On to `CCOC(=O)c1sc2nc(C)nc(SC(C)C(=O)N(C)c3ccccc3)c2c1C` (stereo not given), for which the cell number change is -7.38%. Also, under setting [1], the AC50 is 23.1 µM [falling, single point].

Consider `O=C(CN1CCC(n2nnc3cc(F)ccc32)CC1)Nc1ccccc1N1CCOCC1`, for which the cell number change is -17%. The concentration at half-maximal activity (AC50) under setting [1] was 0.731 µM [rising, partial curve].

In the case of `CC(=O)c1c(C)[nH]c(C(=O)OCC(=O)N2c3ccccc3NC(=O)C2(C)C)c1C`, the concentration at half-maximal activity (AC50) under setting [1] was 0.82 µM [falling, full curve, poor fit].

Consider `Nc1nc(CSC(=S)N2CCOCC2)nc(Nc2ccccc2)n1`, for which the cell number change is 10.5%. In addition, under setting [1], the concentration at half-maximal activity (AC50) was 1.16 µM [rising, full curve].

With `COc1ccc(/C(N)=N/OC(=O)c2ccc(C)c([N+](=O)[O-])c2)cc1OC`, the half-maximal activity concentration (AC50) is 2.59 µM [rising, single point] under setting [2] and 6.51 µM [rising, single point] under setting [1].

As for `O=C(Nc1cc(C(F)(F)F)ccc1N1CCOCC1)c1ccc(Br)o1`, the cell number change amounted to 15.7%. For the same compound, the AC50 under setting [2] is 0.731 µM [rising, single point]. The half-maximal activity concentration (AC50) under setting [1] is 0.259 µM [rising, full curve, poor fit].

Take `CSc1ccccc1NC(=S)NC1CCCC1`: the cell number change stood at 27.6%. Moreover, the half-maximal activity concentration (AC50) under setting [1] was 29.1 µM [rising, single point].

Turning to `C=CCn1c(=O)c2c3c(sc2n2c(Nc4ccc(OC)cc4)nnc12)CCCC3`, the cell number change is -11.3%.

Turning to `Cc1cc(C)c(S(=O)(=O)N2CCCCC2C(=O)O)c(C)c1` (stereo not given), the cell number change is -34.9%. In addition, the AC50 under setting [2] was 18.4 µM [falling, single point]. Moreover, the half-maximal activity concentration (AC50) under setting [1] was 14.6 µM [falling, partial curve].

On to `Cc1nc(SCc2ccccc2)c([N+](=O)[O-])[nH]1`, for which the cell number change was -2.43%. Moreover, the AC50 under setting [1] was 20.6 µM [rising, partial curve].

As for `COc1ccc(C(=O)NC2CCN(CC(=O)NCc3cccc(OC)c3)CC2)cc1`, the cell number change was found to be 16.4%.

For the compound `CN(C)c1ccc(-c2nnc(-c3cccnc3)o2)cc1`, the concentration at half-maximal activity (AC50) under setting [2] is 0.0731 µM [falling, full curve, poor fit].

Take `CC1CCCCC1N=C1NC(C)(C)CS1` (stereo not given): the cell number change is -24.6%. Under setting [2], the AC50 is 4.11 µM [falling, single point]. Also, the AC50 under setting [1] was 0.58 µM [falling, full curve, poor fit].

Consider `CCn1c(SCC(=O)NC2CCCCC2)nnc1-c1ccccc1F`, for which the cell number change amounted to 11.8%. Besides, the half-maximal activity concentration (AC50) under setting [1] is 29.1 µM [rising, single point].

Turning to `N=c1n(CCO)c2ccccc2n1CCOc1ccccc1`, the cell number change was determined as 3.52%. Under setting [1], the AC50 is 5.8 µM [falling, full curve].

`O=C(COC(=O)C1=COCCO1)Nc1ccccc1OC(F)F`: the cell number change is -24.2%. For the same compound, under setting [1], the AC50 was 1.3 µM [falling, partial curve].

For `CCOc1ccccc1N(CC(=O)Nc1ccccc1F)S(=O)(=O)c1ccccc1`, the cell number change was -24.7%. In addition, the concentration at half-maximal activity (AC50) under setting [1] is 29.1 µM [falling, single point].

For the compound `CCCOC(=O)C1=C(C)NC2=C(C(=O)CC(C)(C)C2)C1c1cccnc1` (stereo not given), the cell number change was found to be 13.5%. Also, the AC50 under setting [1] was 0.731 µM [rising, full curve, poor fit].

In the case of `N#Cc1c(NCCO)ccc([N+](=O)[O-])c1NCCO`, the cell number change is -0.241%. Besides, under setting [2], the AC50 is 2.91 µM [rising, single point].

In the case of `Cc1ccc2nc(N/N=C\c3ccc([N+](=O)[O-])o3)nc(-c3ccccc3)c2c1`, the AC50 runs as follows: under setting [2], 0.231 µM [rising, full curve, poor fit]; under setting [1], 5.17 µM [rising, partial curve, poor fit].

For `O=c1cnnc(Nc2cccc(F)c2)[nH]1`, the cell number change turned out to be 17.2%. In addition, under setting [1], the AC50 was 0.092 µM [falling, partial curve, poor fit].

Consider `Cc1cc(C)c(OCC(=O)Nc2nnc(-c3ccco3)o2)c(C)c1`, for which the cell number change was -13.4%. In addition, the concentration at half-maximal activity (AC50) under setting [1] is 0.517 µM [falling, full curve, poor fit].

Turning to `Cc1nn(CC(=O)NNC(=O)c2ccc(Br)cc2)c(C)c1[N+](=O)[O-]`, the cell number change amounted to 14.1%. The AC50 under setting [1] was 0.82 µM [rising, full curve, poor fit].

Regarding `COc1cccc(CCNc2ccc(N3C(=O)CC(C)C3=O)cc2[N+](=O)[O-])c1` (stereo not given), the cell number change is -7.53%. Moreover, under setting [1], the half-maximal activity concentration (AC50) is 0.0651 µM [falling, full curve, poor fit].

As for `Cc1cc2ccccc2n1CCNC(=O)c1cccs1`, under setting [2], the half-maximal activity concentration (AC50) is 2.06 µM [rising, single point].

Consider `C=C(C)COc1ccc(-c2[nH]ncc2-c2ccc(OC)c(OC)c2)c(O)c1`, for which the cell number change is -126%. Further, the AC50 under setting [2] is 29.1 µM [falling, single point]. Under setting [1], the AC50 is 23.1 µM [falling, single point].

As for `COc1cccc(/C=N/Nc2nn3cnnc3c3ccccc23)c1`, the cell number change was -32.3%. The concentration at half-maximal activity (AC50) under setting [2] is 29.1 µM [falling, single point]. In addition, under setting [1], the concentration at half-maximal activity (AC50) is 0.731 µM [rising, partial curve].

Turning to `CCCc1cc(=O)[nH]c(SCC(=O)N2CCN(S(=O)(=O)c3ccc4ccccc4c3)CC2)n1`, the cell number change was -33.1%. In addition, the half-maximal activity concentration (AC50) under setting [2] was 0.206 µM [falling, full curve].

`CC(=O)Oc1ccccc1C1=NN(C(=O)/C=C/c2ccccc2)C(c2ccccc2)C1` (stereo not given): the cell number change is -18.8%. In addition, under setting [1], the concentration at half-maximal activity (AC50) was 16.4 µM [falling, single point].

In the case of `CCOC(=O)c1sc(NC(=O)CCN2C(=O)c3ccccc3C2=O)c(C(=O)OCC)c1C`, the cell number change worked out at 10.7%.

Regarding `c1ccc(NC2=NCCN2CCCC2CCCC2)cc1`, the cell number change was determined as 14.7%. Moreover, the AC50 under setting [2] was 0.651 µM [falling, partial curve, poor fit]. Besides, the concentration at half-maximal activity (AC50) under setting [1] was 5.8 µM [falling, partial curve, poor fit].

Turning to `O=C(O)c1cc2c(cc1NC(=O)c1ccccc1OC(F)F)OCCCO2`, the cell number change is 17.8%.

`COc1ccc(-c2csc(Nc3cccc(C)n3)n2)cc1`: the cell number change was -27.8%. For the same compound, the half-maximal activity concentration (AC50) under setting [1] is 0.00517 µM [falling, full curve, poor fit].

On to `COc1ccc(CCNC(=O)CSc2nnc3ccc(-c4ccccn4)nn23)cc1OC`, for which the concentration at half-maximal activity (AC50) by setting is: under setting [2], 0.206 µM [rising, full curve, poor fit]; under setting [1], 0.259 µM [rising, full curve].

Take `O=C(c1ccccc1)c1cnc[nH]1`: the cell number change was -10.1%. Further, the AC50 under setting [2] is 0.651 µM [rising, full curve, poor fit].

For the compound `CCOc1cc(S(=O)(=O)NCc2cccs2)ccc1Cl`, the cell number change is -5.95%.

`CCOc1ccc(-c2ccc(SCC(=O)NCC3CCCO3)nn2)cc1` (stereo not given): the cell number change stood at 4.97%. The concentration at half-maximal activity (AC50) under setting [1] was 0.231 µM [rising, full curve, poor fit].

Turning to `CC1(C)C(=O)Nc2ccccc2N1C(=O)CN1C(=O)C(=O)N(C2CCCC2)C1=O`, the cell number change is -11%.

On to `O=C(Cn1nc(-c2ccc(F)cc2)ccc1=O)Nc1ccc(C(=O)NC2CC2)cc1`, for which the cell number change is 4.73%. Moreover, under setting [2], the AC50 was 1.3 µM [rising, full curve]. The concentration at half-maximal activity (AC50) under setting [1] was 1.16 µM [rising, full curve].

For `CC1CN/C(=C\C(=O)c2ccc(Br)cc2)C(=O)N1` (stereo not given), the cell number change was -1.39%. Also, under setting [1], the AC50 was 2.06 µM [rising, single point].

For `O=C(Nc1cc(Cl)cc(Cl)c1)N1CCN(C(=O)C2CCCO2)CC1` (stereo not given), the cell number change was determined as 34.1%. The concentration at half-maximal activity (AC50) under setting [2] was 29.1 µM [rising, partial curve]. Under setting [1], the AC50 was 1.84 µM [rising, partial curve, poor fit].

With `COc1ccc(Cc2nnc(NC(=O)c3c(-c4ccccc4)noc3C)s2)cc1OC`, the cell number change was determined as 4.38%. Under setting [1], the concentration at half-maximal activity (AC50) is 20.6 µM [rising, partial curve].

With `CN1CCN(CCCNC(=O)c2cn(C3CCCCC3)c(=O)c3c2c2ccccc2n3C)CC1`, the cell number change was -14%. Further, under setting [1], the concentration at half-maximal activity (AC50) was 0.116 µM [falling, partial curve, poor fit].

Regarding `O=C(CCC1CCCN(C(=O)c2ccoc2)C1)NCc1ccccc1F` (stereo not given), the cell number change was -32.3%. The AC50 under setting [2] is 1.3 µM [falling, full curve, poor fit]. For the same compound, under setting [1], the half-maximal activity concentration (AC50) was 1.46 µM [falling, full curve].

As to `Cc1nc2ccccc2c2oc(C(=O)N3CCN(C(=O)c4ccco4)CC3)cc12`, the cell number change was -2.94%. Further, under setting [1], the concentration at half-maximal activity (AC50) is 29.1 µM [falling, single point].

For the compound `Cc1cc2ccccc2n1CCNC(=O)C1CCCCC1`, the cell number change worked out at 40.7%. Also, the AC50 under setting [2] was 18.4 µM [rising, single point].

With `O=C1CCCC/C1=C/Nc1ccc(C(=O)O)cc1`, the cell number change amounted to 1.03%.

Turning to `CCOc1ccccc1CN1CCNC(=O)C1CC(=O)NCc1cc(C)n(C)n1` (stereo not given), the cell number change is -30.7%. Under setting [2], the concentration at half-maximal activity (AC50) is 20.6 µM [falling, single point]. In addition, the AC50 under setting [1] is 0.58 µM [falling, single point].

On to `O=C(CN1C(=O)C2CC=CCC2C1=O)Nc1ccccc1N1CCCC1` (stereo not given), for which, under setting [2], the half-maximal activity concentration (AC50) is 1.84 µM [rising, partial curve, poor fit].

For `COc1ccc(C(C)=O)cc1COc1ccccc1[N+](=O)[O-]`, the cell number change was found to be 46.8%. The concentration at half-maximal activity (AC50) under setting [1] was 0.116 µM [falling, full curve, poor fit].

On to `Cc1ccc(C)c(S(=O)(=O)N2CCN(C(=O)c3sccc3C)CC2)c1`, for which the cell number change is 80.7%. Further, the AC50 under setting [2] was 8.2 µM [rising, partial curve].

On to `O=C(O)CN(CCO)CCN(CC(=O)O)CC(=O)O`, for which the cell number change is -23.9%. Besides, the concentration at half-maximal activity (AC50) under setting [1] was 13 µM [falling, single point].
